Results published in PubChem BioAssay AID1347076 (National Center for Advancing Translational Sciences (NCATS), 2019).
The whole screen tested about 400,000 compounds, of which about 13,000 (3.2%) were called active. This list was built around the results that the source calls inconclusive (neither active nor inactive); the mix of calls is not that of the screen. Calls come from the whole dose curve; as a rule, active = well fitted cell-killing curve with a large enough effect; inconclusive = small, poorly fitted or top-dose-only effect, or effect the other way; inactive = flat fitted curve, though single readings scatter. Potencies beside an inconclusive call are fits to weak or partial responses and may not hold up.
% is set by controls: 0 for no effect and ±100 for the full control effect; potency is the fitted concentration of half-maximal effect.

Assay: qHTS assay for MDR1-selective chemotherapeutics: Primary screen using the drug-selected MDR subline cells KB-V1; note: nearly all actives have a fitted effect of over 60% in size
Settings: KB-V1 MDR cells viability, CellTiter-Glo, 72 h; activity change, negative = cytotoxicity: at 46.1 µM (top of the series)
How it was run: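 Drug-selected KB-V1 cells, grown in DMEM lacking phenol red with 10% FBS, receive compound titrations; after three days at 37 degrees C, surviving cell ATP is quantified by CellTiter-Glo luminescence and responses normalized and curve-fitted.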
With `CCc1ccc(NC(=O)/C(C#N)=C/c2cc3ccc(C)cc3nc2N2CCOCC2)cc1` the Potency was “inactive”. With `Cn1c(=O)[nH]c(=O)c2c1nc(CN1CCN(c3cccc(Cl)c3)CC1)n2CCc1ccccc1` the Potency was inconclusive: 29.1 µM [cytotoxic, single point]. For `CCN(CC)C(=O)Oc1ccc2c(=O)c(-c3ccccc3)coc2c1`, the Potency was active: 20.6 µM. In the case of `COCCn1c(SC(C)C(=O)NCC2CCCO2)nc2scc(-c3ccc(F)cc3)c2c1=O` (centres undefined), the Potency is reported as inconclusive: 2.06 µM [cytotoxic, partial curve, poor fit]. In the case of `CCCCNCc1cc(Br)c(OCc2cccs2)c(OC)c1`, the Potency is reported as inconclusive: 20.6 µM [cytotoxic, single point]. For `CC(=O)Nc1ccc(S(=O)(=O)N2CCN(Cc3ccccc3[N+](=O)[O-])CC2)cc1`, the Potency was inconclusive: 10.3 µM [cytotoxic, partial curve]. For `CCOC(=O)c1cc(-c2ccccc2)nn1-c1ccccn1`, the Potency was inconclusive: 14.6 µM [cytotoxic, single point]. With `CCOc1ncccc1C(=O)Nc1ccc(S(=O)(=O)Nc2nc(C)cc(C)n2)cc1` the Potency was active: 20.6 µM. For `O=C(Nc1nc(-c2ccccc2)cs1)c1ccc(=O)[nH]c1`, the Potency was active: 18.4 µM. With `Cc1ccc(-n2ncc3c(NCCc4ccccc4)ncnc32)cc1` the Potency was “inactive”. For `CC(C)(C)C(=O)COC(=O)c1cc(S(=O)(=O)N2CCCCC2)ccc1N1CCOCC1`, the Potency was inconclusive: 7.31 µM [cytotoxic, partial curve]. For `COc1cccc(C(=O)Nc2ccc3c(c2)CCCN3C(=O)c2cccs2)c1OC`, the Potency was inconclusive: 29.1 µM [cytotoxic, single point]. In the case of `CCOc1cc(/C=N/NC(=O)c2cccnc2)ccc1O`, the Potency is reported as inconclusive: 1.46 µM [rising, single point]. With `CC1CCN(C(=O)N2c3ccccc3Sc3ccccc32)CC1` the Potency was inconclusive: 18.4 µM [cytotoxic, single point]. With `[O-]/C(=C(\C(=S)Nc1ccc(SC(F)F)cc1)[n+]1ccccc1)c1ccc(Cl)cc1Cl` the Potency was inconclusive: 16.4 µM [cytotoxic, single point]. For `O=C(Nc1ccccc1N1CCN(C(=O)c2ccccc2)CC1)c1ccc(Cl)cc1`, the Potency was “inactive”. In the case of `FC(F)(F)c1cccc(N2CCN(C(=S)NC3CCCC3)CC2)c1`, the Potency is reported as inconclusive: 25.9 µM [cytotoxic, single point]. In the case of `CCN(CC)c1ccc2nc3ccc(N)cc3[n+](-c3ccccc3)c2c1`, the Potency is reported as inconclusive: 20.6 µM [cytotoxic, single point]. In the case of `Cc1ccc(S(=O)(=O)N(C)CC(=O)NCc2ccncc2)cc1`, the Potency is reported as inconclusive: 23.1 µM [cytotoxic, partial curve, poor fit]. In the case of `CC(=O)Nc1ccc(CN2CCN(C3CCCCC3)C(CCO)C2)cc1` (centres undefined), the Potency is reported as inconclusive: 18.4 µM [rising, single point]. With `Cc1ccc(-c2nc(CS(=O)(=O)CC(=O)NC3CC3)c(C)o2)cc1` the Potency was inconclusive: 20.6 µM [rising, single point]. With `CCOc1ccc(Nc2c(S(=O)(=O)c3ccc(C)cc3)cnc3ccccc23)cc1` the Potency was inconclusive: 9.2 µM [cytotoxic, partial curve, poor fit]. For `Cc1ccc(S(=O)(=O)N2CCC(C(=O)OC(C)C(=O)N(C)c3ccccc3)CC2)cc1C` (centres undefined), the Potency was inconclusive: 16.4 µM [cytotoxic, single point]. In the case of `CN(O)C(=O)Nc1ccc([N+](=O)[O-])cc1`, the Potency is reported as inconclusive: 0.0291 µM [rising, full curve, poor fit]. With `O=C(NNc1ccccc1[N+](=O)[O-])Nc1ccc(Cl)c(Cl)c1` the Potency was “inactive”. For `CCC(Cc1ccccc1)NC(=O)c1csc2c1CCCCC2` (centres undefined), the Potency was “inactive”. With `COc1cccc(Cn2c(SCc3ccc(C(=O)N4CCC(C)CC4)cc3)nc3ccncc32)c1` the Potency was “inactive”. In the case of `O=C(NC1CCCCC1)N1CCCC(c2nc3ccccc3[nH]2)C1` (centres undefined), the Potency is reported as active: 20.6 µM. With `Cc1ccc(-n2nnnc2SCC(=O)Nc2sccc2C#N)cc1` the Potency was active: 18.4 µM. In the case of `Cn1c(=O)n(Cc2ccccc2)c2ccccc21`, the Potency is reported as inconclusive: 25.9 µM [cytotoxic, single point]. For `Cc1cc(S(=O)(=O)Nc2c(C)ccc3nsnc23)ccc1F`, the Potency was inconclusive: 13 µM [cytotoxic, partial curve, poor fit]. In the case of `O=[N+]([O-])c1cccc(CSc2cccc[n+]2[O-])c1`, the activity change, negative = cytotoxicity is reported as inconclusive: 30.1%. For `CSc1nnc(C)c(/C=C/Nc2ccc(Cl)cc2)n1`, the Potency was inconclusive: 20.6 µM [cytotoxic, single point]. For `Cc1cc(C(=O)CSc2nnnn2-c2ccccc2)c(C)n1CC1CCCO1` (centres undefined), the Potency was inconclusive: 2.91 µM [cytotoxic, full curve]. With `Cc1c(Cl)cccc1NC(=O)CNC(=O)CCCc1nc2ccccc2c(=O)[nH]1` the Potency was “inactive”. In the case of `O=C(CN1CCN(S(=O)(=O)N2CCCCC2)CC1)Nc1ccc(Br)cc1`, the Potency is reported as inconclusive: 10.3 µM [cytotoxic, partial curve]. With `COc1ccc(NS(=O)(=O)c2ccc(O)c(NC(=O)c3cc4c(C)nn(-c5ccc(F)cc5)c4s3)c2)cc1` the Potency was “inactive”. With `COc1ccc2c(C)cc(SCC(=O)Nc3nsc(-c4ccc(C(C)(C)C)cc4)n3)nc2c1` the Potency was inconclusive: 14.6 µM [cytotoxic, single point]. For `Cc1cccc(OCCCn2c(CO)nc3ccccc32)c1`, the Potency was inconclusive: 16.4 µM [cytotoxic, single point]. For `CC(C)(C)OC(=O)N1CCC(c2c(C(=O)NCCN3CCOCC3)cnn2-c2ccccc2)CC1`, the Potency was inconclusive: 29.1 µM [cytotoxic, single point]. For `CCOc1ccc(S(=O)(=O)/N=C(/Nc2ccc(C)c(S(=O)(=O)N3CCOCC3)c2)c2ccccc2)cc1`, the Potency was active: 9.2 µM. For `O=[N+]([O-])c1cc(/C=N/n2c(-c3ccncc3)n[nH]c2=S)ccc1Cl`, the Potency was “inactive”. For `CN(C)C(=O)/C(=C/c1cn(-c2ccccc2)nc1-c1cccc([N+](=O)[O-])c1)NC(=O)c1ccccc1`, the Potency was “inactive”. For `CCCc1ccc(OCc2ccc(C(=O)N/N=C/c3cccnc3)o2)cc1`, the Potency was “inactive”.
